Source: PMC8719587

Columns and labels:
[1] = target: GmLMM1-HA (HA-labeled GmLMM1 in transgenic plants) (soybean (Glycine max)); test: co-IP; protein extract of 7-day GmLMM1-HA transgenic plants in NEBT buffer incubated with 1 μM RALF peptide from E. coli; precipitated with HA beads overnight at 4°C; immunoblot with anti-HA and anti-His; only the binder purified
[2] = target: GST-GmLMM1^ECD fusion protein (GmLMM1 extracellular domain, residues 27 to 452) (soybean (Glycine max)) (UniProt I1LWU2); test: pull-down; GST-GmLMM1^ECD mixed with RALF and glutathione agarose beads in GST-binding buffer (20 mM HEPES, 40 mM KCl, 1 mM EDTA, pH 7.5), 4°C overnight; eluted with glutathione; immunoblot with anti-GST and anti-His; both purified

Binder | binding [1] | binding [2]
ATRRYISYGALRRNTIPCSRRGASYYNCRRGAQANPYSRGCSAITRCRRS (ligand, UniProt Q9LUS7 89-138) [AtRALF23 peptide, bioactive form (amino acids 89-138), with 6 x His-MBP tag] | binds | binds
ATTKYISYQSLKRNSVPCSRRGASYYNCQNGAQANPYSRGCSKIARCRS (ligand, UniProt Q9SRY3 72-120) [AtRALF1 peptide, bioactive form (amino acids 72-120), with 6 x His-MBP tag] |  | no binding

Results are given in words; binding and its absence hold for the method and conditions named. Binding calls can cover weak binding; strength is not graded here. Sequences can lack the tags named with a protein. For part of these data: In cells and extracts the contact can be indirect.
